# The list shows only some results of the screen, not a fair sample: it gathers tests that were run many times, whatever their T/C, doses with no T/C, and many T/C values between a quarter and a half above the control. Other doses and runs of a compound stand elsewhere. T/C: endpoint of the treated group in % of that of the vehicle group. Some entries give survivors of the animals treated and no T/C: the source files T/C as zero there, which appears to mark a toxic dose or a test without result, not a measured value. Some doses without a T/C left all or most animals alive at the check, yet need not have been tolerated: survival well below the control is almost never listed, so the zero probably covers shortened survival too. Counts of survivors are from the toxicity check (mostly the fifth day) where no day follows; animals may have died later. Schedules are NCI's codes, read here as Q, the interval in days (D) or hours (H), X, the number of doses.
# Test system: L1210 leukemia ip in BDF1 mice, survival T/C
# Assay: NCI In Vivo Anticancer Drug Screen. Data for tumor model L1210 Leukemia (intraperitoneal) in B6D2F1 (BDF1) mice
# Conditions: T/C endpoint: mean survival time, higher T/C = longer survival
structure (smiles),measurement,setting,value
Clc1ccc([O][Sn]([c]2ccccc2)([c]2ccccc2)[c]2ccccc2)c(-c2ccccc2)c1,survivor count,"dose: 20.0 mg/kg/injection, schedule: Q01DX001 (ip), vehicle: saline",3 of 6
same,survivor count,"dose: 40.0 mg/kg/injection, schedule: Q01DX001 (ip), vehicle: saline",1 of 6
same,survivor count,"dose: 80.0 mg/kg/injection, schedule: Q01DX001 (ip), vehicle: saline",0 of 6
Cc1nc(Br)c2cnccn12,survivor count,"dose: 50.0 mg/kg/injection, schedule: Q01DX009 (ip), vehicle: saline",0 of 6
same,survivor count,"dose: 100.0 mg/kg/injection, schedule: Q04DX003 (ip), vehicle: saline",2 of 6
same,survivor count,"dose: 200.0 mg/kg/injection, schedule: Q04DX003 (ip), vehicle: saline",0 of 6
same,survivor count,"dose: 400.0 mg/kg/injection, schedule: Q04DX003 (ip), vehicle: saline",0 of 6
O=[N+]([O-])c1ccc(-c2ccccc2)c([As](=O)(O)O)c1,survivor count,"dose: 50.0 mg/kg/injection, schedule: Q04DX002 (ip), vehicle: saline with Tween-80",1 of 3
same,survivor count,"dose: 100.0 mg/kg/injection, schedule: Q04DX002 (ip), vehicle: saline with Tween-80",0 of 3
same,survivor count,"dose: 200.0 mg/kg/injection, schedule: Q04DX002 (ip), vehicle: saline with Tween-80",0 of 3
same,survivor count,"dose: 400.0 mg/kg/injection, schedule: Q04DX002 (ip), vehicle: saline with Tween-80",0 of 3
CCCCCCCCCCC(=O)N1CCCCCC1,survivor count,"dose: 100.0 mg/kg/injection, schedule: Q04DX002 (ip), vehicle: Klucel (hydroxypropylcellulose) (HPC)",3 of 3
same,survivor count,"dose: 200.0 mg/kg/injection, schedule: Q04DX002 (ip), vehicle: Klucel (hydroxypropylcellulose) (HPC)",3 of 3
same,survivor count,"dose: 400.0 mg/kg/injection, schedule: Q04DX002 (ip), vehicle: Klucel (hydroxypropylcellulose) (HPC)",3 of 3
CCN(CC)CCCNC(=S)NC(C)(C)CC(C)=O,survivor count,"dose: 200.0 mg/kg/injection, schedule: Q01DX009 (ip), vehicle: Klucel (hydroxypropylcellulose) (HPC)",6 of 6
N#CSCC(=O)c1ccccc1,survivor count,"dose: 25.0 mg/kg/injection, schedule: Q01DX009 (ip), vehicle: Klucel (hydroxypropylcellulose) (HPC)",2 of 6
same,survivor count,"dose: 50.0 mg/kg/injection, schedule: Q01DX009 (ip), vehicle: Klucel (hydroxypropylcellulose) (HPC)",2 of 6
same,survivor count,"dose: 100.0 mg/kg/injection, schedule: Q01DX001 (ip), vehicle: saline",1 of 6
same,survivor count,"dose: 100.0 mg/kg/injection, schedule: Q01DX009 (ip), vehicle: Klucel (hydroxypropylcellulose) (HPC)",2 of 6
same,survivor count,"dose: 200.0 mg/kg/injection, schedule: Q01DX001 (ip), vehicle: saline",0 of 6
same,survivor count,"dose: 400.0 mg/kg/injection, schedule: Q01DX001 (ip), vehicle: saline",0 of 6
Cc1ccccc1N=P(c1ccccc1)(c1ccccc1)c1ccccc1,survivor count,"dose: 400.0 mg/kg/injection, schedule: Q01DX009 (ip), vehicle: gum acacia",1 of 6
CC1(C)CN(Cc2ccccc2)C(C)(C)CN1,survivor count,"dose: 50.0 mg/kg/injection, schedule: Q04DX003 (ip), vehicle: saline with Tween-80",1 of 6
same,survivor count,"dose: 100.0 mg/kg/injection, schedule: Q04DX003 (ip), vehicle: saline with Tween-80",0 of 6
same,survivor count,"dose: 200.0 mg/kg/injection, schedule: Q04DX003 (ip), vehicle: saline with Tween-80",0 of 6
same,survivor count,"dose: 400.0 mg/kg/injection, schedule: Q04DX003 (ip), vehicle: saline with Tween-80",0 of 6
Nc1ccc(Nc2ccncc2)cc1,survivor count,"dose: 400.0 mg/kg/injection, schedule: Q04DX003 (ip), vehicle: Klucel (hydroxypropylcellulose) (HPC)",1 of 6

# — PubChem BioAssay AID248 (DTP/NCI, 2004)
